Results: patent publication US20170247448A1
Residue numbers refer to the chain shown, from its start. These are yes or no findings as the source states them, for the method shown. Some binding calls cover weakened binding; strength is not graded here.

Experiments:
MAb 583 = assay: competition ELISA on MAb 583 coated plate; competitor NT-biotin hepcidin-25
[1] = target: T1, Human hepcidin peptide (hepcidin-25) (human); assay: titration affinity ELISA
T1 sequence (peptide): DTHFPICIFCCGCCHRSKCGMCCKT

[2] = target: T1, Human hepcidin peptide (hepcidin-25) (human); assay: titration affinity ELISA, plate-bound hepcidin, CHO supernatant
BAP070-hum03 [3] = assay: anti-human Fc coated c-ELISA, antibody 30 ng/well (title of the figure), hepcidin titrated against a labelled tracer not named for this figure; same data as FIG. 20A
BAP070-hum01 [4] = assay: as above
BAP070-hum05 [5] = assay: as above
BAP070-hum02 [6] = assay: as above
BAP070-hum06 [7] = assay: as above
BAP070-hum04 [8] = assay: as above
BAP070-hum03 [9] = assay: C-ELISA on goat anti-human Fc coat, hepcidin titrated against a labelled tracer not named for this figure; the signal falls as hepcidin occupies the antibody
BAP070-hum01 [10] = assay: as above
BAP070-hum05 [11] = assay: as above
BAP070-hum02 [12] = assay: as above
BAP070-hum06 [13] = assay: as above
BAP070-hum04 [14] = assay: as above
[15] = target: T2, Human hepcidin-20 peptide (hepcidin-20) (human); assay: Western blot after reducing SDS-PAGE
T2 sequence (peptide): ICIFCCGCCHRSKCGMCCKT

[16] = target: T3, Human hepcidin 22 peptide (hepcidin-22) (human); assay: Western blot after non-reducing tricine SDS-PAGE
T3 sequence (peptide): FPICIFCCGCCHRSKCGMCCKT

[17] = target: T2, Human hepcidin-20 peptide (hepcidin-20) (human); assay: Western blot after non-reducing tricine SDS-PAGE

Measured: binding

B1: Human hepcidin 22 peptide (hepcidin-22) (peptide)
peptide: FPICIFCCGCCHRSKCGMCCKT
binds: MAb 583

B2: BAP070-hum01 (antibody, IgG1, V domains shown)
VH: QVQLVQSGAEVKKPGASVKVSCKASGYTFTNYGMNWVRQARGQRLEWIGWINTYTGEPTYADDFKGRLTISKDTSKNQVVLTMTNMDPVDTATYYCTTYATSWYWGQG
VL: DIQMTQSPSSLSASVGDRVTITCRASESVDSYGNSFMHWYQQKPGQAPRLLIYRASNLESGVPSRFSGSGSGTDFTFTISSLQPEDIATYYCQQSNEDLTFG
binds: [1] | [2]

B3: BAP070-hum05 (antibody, IgG1, V domains shown)
VH: EVQLVQSGAEVKKPGESLRISCKGSGYTFTNYGMNWIRQPPGKGLEWIGWINTYTGEPTYADDFKGRVTISADKSISTAYLQWSSLKASDTAMYYCTTYATSWYWGQG
VL: B2 VL
binds: [1] | [2]

B4: BAP070-hum02 (antibody, IgG1, V domains shown)
VH: B2 VH
VL: AIQLTQSPSSLSASVGDRVTITCRASESVDSYGNSFMHWYQQKPGKAPKLLIYRASNLESGIPARFSGSGSGTEFTLTISSLQSEDFAVYYCQQSNEDLTFG
binds: [1] | [2]

B5: BAP070-hum06 (antibody, IgG1, V domains shown)
VH: B3 VH
VL: B2 VL with D1A, M4L
binds: [1] | [2]

B6: BAP070-hum03 (antibody, IgG1, V domains shown)
VH: QVQLVQSGAEVKKPGASVKVSCKASGYTFTNYGMNWVRQATGQGLEWMGWINTYTGEPTYADDFKGRFVFSLDTSVSTAYLQICSLKAEDTAVYYCTTYATSWYWGQG
VL: B2 VL with D1A, M4L
binds: [1] | [2]

B7: BAP070-hum04 (antibody, V domains shown)
VH: B2 VH
VL: AIQLTQSPSSLSASVGDRVTITCRASESVDSYGNSFMHWFQQRPGQSPRRLIYRASNLESGIPPRFSGSGYGTDFTLTINNIESEDAAYYFCQQSNEDLTFG
binds: [1] | [2]

B8: Human hepcidin peptide (hepcidin-25) (peptide)
peptide: DTHFPICIFCCGCCHRSKCGMCCKT
binds: MAb 583 | BAP070-hum03 [3] | BAP070-hum01 [4] | BAP070-hum05 [5] | BAP070-hum02 [6] | BAP070-hum06 [7] | BAP070-hum04 [8] | BAP070-hum03 [9] | BAP070-hum01 [10] | BAP070-hum05 [11] | BAP070-hum02 [12] | BAP070-hum06 [13] | BAP070-hum04 [14]

B9: MAb 583 (antibody, V domains shown)
VH: QIQLVQSGPELKKPGETVKISCKASGYTFTNYGMNWVKQAPGKGLKWMGWINTYTGEPTYADDFKGRFAFSLETSASTAYLQINNLKNEDTATYFCTTYATSWYWGQG
VL: DIVLTQSPASLAVSLGQRATISCRASESVDSYGNSFMHWYQQKPGQPPKLLIYRASNLESGIPARFSGSGSRTDFTLTINPVEADDVATYYCQQSNEDLTFG
binds: [15] | [16] | [17]

B10: Human hepcidin-20 peptide (hepcidin-20) (peptide)
peptide: ICIFCCGCCHRSKCGMCCKT
binds: MAb 583
